No constants are given. Whether binding was seen depends on the method and setting. For some assays here: In cells and extracts the contact can be indirect. Some binding calls cover weakened binding; strength is not graded here. For some assays here: Where a sequence is shown, tags or fusion partners need not be part of it.
How the values were obtained:
CNTFRα-Myc (human) = target: T1, CNTFRα-Myc (human) (UniProt P26992); assay: cross-linking + co-IP; HEK293 double transfectants cross-linked with DSP, lysed in 1% Triton X-100, precipitated with anti-sorLA or anti-Myc, SDS-PAGE with and without DTT, immunoblot
T1 sequence: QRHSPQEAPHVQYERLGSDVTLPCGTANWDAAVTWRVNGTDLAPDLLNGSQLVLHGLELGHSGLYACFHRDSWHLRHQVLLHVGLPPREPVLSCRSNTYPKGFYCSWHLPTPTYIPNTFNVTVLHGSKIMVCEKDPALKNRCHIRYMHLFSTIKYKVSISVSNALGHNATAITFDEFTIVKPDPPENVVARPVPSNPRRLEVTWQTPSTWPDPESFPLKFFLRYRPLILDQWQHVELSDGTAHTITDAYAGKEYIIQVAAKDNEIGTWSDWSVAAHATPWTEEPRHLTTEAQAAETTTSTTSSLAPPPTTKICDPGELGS

Amino acid sequences for entries named in this document (tags omitted). A change or cut given only in a name is not applied to a line headed by its entry. Residues count along the entry.
UniProt Q92673: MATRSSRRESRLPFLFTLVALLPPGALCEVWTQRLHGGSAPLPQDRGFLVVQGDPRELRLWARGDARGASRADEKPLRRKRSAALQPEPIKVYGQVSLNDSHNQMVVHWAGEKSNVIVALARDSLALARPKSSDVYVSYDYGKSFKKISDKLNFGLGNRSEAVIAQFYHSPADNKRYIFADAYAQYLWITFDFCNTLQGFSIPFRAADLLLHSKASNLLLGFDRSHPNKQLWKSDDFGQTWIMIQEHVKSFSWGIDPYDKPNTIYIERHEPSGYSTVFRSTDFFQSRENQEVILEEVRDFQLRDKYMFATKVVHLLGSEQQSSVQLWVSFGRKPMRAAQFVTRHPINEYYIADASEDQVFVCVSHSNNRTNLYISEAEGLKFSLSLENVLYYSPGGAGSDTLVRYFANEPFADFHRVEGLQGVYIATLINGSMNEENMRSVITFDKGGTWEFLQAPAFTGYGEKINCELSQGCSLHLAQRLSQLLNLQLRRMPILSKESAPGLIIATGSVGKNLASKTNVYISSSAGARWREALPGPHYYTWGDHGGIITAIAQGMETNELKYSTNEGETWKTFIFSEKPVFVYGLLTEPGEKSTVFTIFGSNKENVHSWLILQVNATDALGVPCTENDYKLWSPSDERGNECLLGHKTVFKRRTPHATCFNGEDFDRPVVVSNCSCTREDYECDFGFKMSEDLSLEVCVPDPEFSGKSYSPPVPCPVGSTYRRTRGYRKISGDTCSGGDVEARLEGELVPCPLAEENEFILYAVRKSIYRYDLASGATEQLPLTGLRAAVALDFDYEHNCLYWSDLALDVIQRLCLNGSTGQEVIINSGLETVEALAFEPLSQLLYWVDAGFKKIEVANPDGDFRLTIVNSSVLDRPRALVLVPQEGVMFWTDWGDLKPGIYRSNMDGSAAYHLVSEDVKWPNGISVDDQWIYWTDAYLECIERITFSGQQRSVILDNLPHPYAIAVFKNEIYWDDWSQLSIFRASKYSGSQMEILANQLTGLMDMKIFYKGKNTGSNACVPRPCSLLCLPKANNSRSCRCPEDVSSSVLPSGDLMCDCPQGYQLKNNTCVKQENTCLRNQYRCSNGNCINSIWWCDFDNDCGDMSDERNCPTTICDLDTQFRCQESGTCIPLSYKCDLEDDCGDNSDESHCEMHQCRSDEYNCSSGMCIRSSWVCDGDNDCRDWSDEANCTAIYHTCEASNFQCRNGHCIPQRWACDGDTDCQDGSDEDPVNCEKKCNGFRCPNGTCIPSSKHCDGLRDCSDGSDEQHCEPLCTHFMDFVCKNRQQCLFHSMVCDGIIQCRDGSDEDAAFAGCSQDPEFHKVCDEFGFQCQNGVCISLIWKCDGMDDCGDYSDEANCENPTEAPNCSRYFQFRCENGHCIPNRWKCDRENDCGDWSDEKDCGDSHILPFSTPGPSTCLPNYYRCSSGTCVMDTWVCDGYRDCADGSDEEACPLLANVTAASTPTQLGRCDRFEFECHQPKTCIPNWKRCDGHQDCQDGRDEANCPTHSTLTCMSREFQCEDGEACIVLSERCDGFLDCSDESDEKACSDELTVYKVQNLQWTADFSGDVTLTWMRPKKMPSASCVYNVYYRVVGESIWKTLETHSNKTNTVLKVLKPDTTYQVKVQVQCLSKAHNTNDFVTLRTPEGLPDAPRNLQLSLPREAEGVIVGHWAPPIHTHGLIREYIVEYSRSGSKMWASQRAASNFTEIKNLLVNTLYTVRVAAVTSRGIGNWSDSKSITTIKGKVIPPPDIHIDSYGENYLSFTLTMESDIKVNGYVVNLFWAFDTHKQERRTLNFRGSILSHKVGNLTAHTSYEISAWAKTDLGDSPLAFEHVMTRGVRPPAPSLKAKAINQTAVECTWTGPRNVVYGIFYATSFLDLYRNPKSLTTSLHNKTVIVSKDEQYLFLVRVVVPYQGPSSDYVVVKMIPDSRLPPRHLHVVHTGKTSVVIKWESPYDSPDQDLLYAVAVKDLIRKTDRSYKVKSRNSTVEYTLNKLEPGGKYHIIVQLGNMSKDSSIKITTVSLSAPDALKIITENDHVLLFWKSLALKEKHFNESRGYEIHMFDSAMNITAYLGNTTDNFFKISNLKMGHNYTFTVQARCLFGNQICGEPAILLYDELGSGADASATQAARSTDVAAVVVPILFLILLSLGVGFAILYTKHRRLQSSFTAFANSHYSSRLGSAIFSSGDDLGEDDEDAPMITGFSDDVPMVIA
soluble sorLA (entire luminal part of sorLA): residues 82-2137 of Q92673
UniProt P30533, residues 35-357: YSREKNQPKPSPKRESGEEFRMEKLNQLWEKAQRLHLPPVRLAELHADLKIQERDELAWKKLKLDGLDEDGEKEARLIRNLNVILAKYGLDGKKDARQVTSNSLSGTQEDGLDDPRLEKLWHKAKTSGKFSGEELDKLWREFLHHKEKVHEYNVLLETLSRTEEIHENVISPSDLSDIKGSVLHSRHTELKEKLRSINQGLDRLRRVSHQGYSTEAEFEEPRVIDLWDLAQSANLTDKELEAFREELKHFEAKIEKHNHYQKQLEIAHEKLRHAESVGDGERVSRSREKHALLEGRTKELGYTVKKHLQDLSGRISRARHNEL

[1] = target: soluble sorLA (entire luminal part of sorLA) (human) (UniProt Q92673); assay: SPR; immobilised sorLA preincubated with buffer or with 5 μM inhibitor (sorLA propeptide or RAP) before the ligand was added; both purified

| binding (CNTFRα-Myc (human)) | binding [1] | Substance |
| --- | --- | --- |
| binds |  | full-length sorLA in transfected HEK293 cells (from UniProt Q92673 82-2214) (receptor) |
|  | binds | receptor-associated protein (from UniProt P30533 35-357) |

— article PMC4836274
